Consider 4 molecules from paper PMC5562876, “The integration of Gβ and MAPK signaling cascade in zygote development” (Scientific Reports, 2017).

No constants are given. Whether binding was seen depends on the method and setting. A result given as binding can be weak or reduced; the word gives no strength. For some assays here: Binding seen in cells or lysates may run through a third protein. For some assays here: Where a sequence is shown, tags or fusion partners need not be part of it.

Assay [1] concerns the target YDA-N-Tail-nLUC (Arabidopsis thaliana). Briefly: split reporter; firefly luciferase complementation imaging; 35S-driven nLUC and cLUC constructs co-infiltrated by agrobacterium GV3101 into N. benthamiana leaves, 3 days at 22 °C, CCD imaging.
Assay [2] has as its target YDA-C-Tail-NLuc (Arabidopsis thaliana). The description is as above.
The target in assay [3] is N-Tail of YODA (purified, pull-down) (Arabidopsis thaliana). Briefly: pull-down; purified fusion proteins from E. coli incubated with glutathione agarose beads, 25 mM Tris-HCl pH 7.5, 100 mM NaCl, 1 mM DTT, 1 hr; seven washes with 0.1% Triton X-100; eluted with 15 mM GSH; immunoblot; both purified. (Immunoblotting shows a protein as a band on a membrane.)
The target in assay [4] is C-Tail of YODA (purified, pull-down) (Arabidopsis thaliana). The description is as above.

B1: cLUC-AGB1 (protein, UniProt P49177 1-377)
chain: MSVSELKERHAVATETVNNLRDQLRQRRLQLLDTDVARYSAAQGRTRVSFGATDLVCCRTLQGHTGKVYSLDWTPERNRIVSASQDGRLIVWNALTSQKTHAIKLPCAWVMTCAFSPNGQSVACGGLDSVCSIFSLSSTADKDGTVPVSRMLTGHRGYVSCCQYVPNEDAHLITSSGDQTCILWDVTTGLKTSVFGGEFQSGHTADVLSVSISGSNPNWFISGSCDSTARLWDTRAASRAVRTFHGHEGDVNTVKFFPDGYRFGTGSDDGTCRLYDIRTGHQLQVYQPHGDGENGPVTSIAFSVSGRLLFAGYASNNTCYVWDTLLGEVVLDLGLQQDSHRNRISCLGLSADGSALCTGSWDSNLKIWAFGGHRRVI
On to B1, for which the binding result in assay [1] and in assay [2] was “binds” throughout.

B2: AGB1 (purified, pull-down) (natural protein, Arabidopsis thaliana, UniProt P49177 1-377, looked up)
chain: MSVSELKERHAVATETVNNLRDQLRQRRLQLLDTDVARYSAAQGRTRVSFGATDLVCCRTLQGHTGKVYSLDWTPERNRIVSASQDGRLIVWNALTSQKTHAIKLPCAWVMTCAFSPNGQSVACGGLDSVCSIFSLSSTADKDGTVPVSRMLTGHRGYVSCCQYVPNEDAHLITSSGDQTCILWDVTTGLKTSVFGGEFQSGHTADVLSVSISGSNPNWFISGSCDSTARLWDTRAASRAVRTFHGHEGDVNTVKFFPDGYRFGTGSDDGTCRLYDIRTGHQLQVYQPHGDGENGPVTSIAFSVSGRLLFAGYASNNTCYVWDTLLGEVVLDLGLQQDSHRNRISCLGLSADGSALCTGSWDSNLKIWAFGGHRRVI
notes: AGB1, G protein beta subunit, Arabidopsis thaliana, At4G34460; source: E. coli, purified (glutathione agarose beads)
As for B2, the binding result in assay [3] and in assay [4] was “binds” throughout.

B3: cLUC-SSP (protein, UniProt Q7XJT7 1-465)
chain: MGCCYSLSSTVDPVQDHTTDASSEPRNGGGEDPPLTKFSFSALKTATNHFSPENIVSDQTSDVVFKGRLQNGGFVAIKRFNNMAWSDPKLFLEEAQRVGKLRHKRLVNLIGYCCDGDKRFLVADFMANDTLAKRLFQRKYQTMDWSIRLRVAYFVAEALDYCNTAGFASYNNLSAYKVLFDEDGDACLSCFGLMKEINNDQITTGSVNPENVIYRFGTVLVNLLSGKQIPPSHAPEMIHRKNVFKLMDPYLKGKFSIDEANVVYKLASQCLKYEGQESPNTKEIVATLETLQTRTEAPSYEVVEMTNQEKDASSSSNLSPLGEACLRMDLASIHSILVLAGYDDDKDIIELSFEEWIQEVKELQDVRRNGDRAFVEQDFKTAIACYSQFVEERSLVYPSVYARRSLSYLFCDEPEKALLDGMHAQGVFPDWPTAFYLQSVALAKLDMNTDSADTLKEAALLEVKK
With B3, the binding entry in assay [1] is “binds”; in assay [2], “binds weakly”.

B4: SSP (purified, pull-down) (protein, UniProt Q7XJT7 1-465)
chain: MGCCYSLSSTVDPVQDHTTDASSEPRNGGGEDPPLTKFSFSALKTATNHFSPENIVSDQTSDVVFKGRLQNGGFVAIKRFNNMAWSDPKLFLEEAQRVGKLRHKRLVNLIGYCCDGDKRFLVADFMANDTLAKRLFQRKYQTMDWSIRLRVAYFVAEALDYCNTAGFASYNNLSAYKVLFDEDGDACLSCFGLMKEINNDQITTGSVNPENVIYRFGTVLVNLLSGKQIPPSHAPEMIHRKNVFKLMDPYLKGKFSIDEANVVYKLASQCLKYEGQESPNTKEIVATLETLQTRTEAPSYEVVEMTNQEKDASSSSNLSPLGEACLRMDLASIHSILVLAGYDDDKDIIELSFEEWIQEVKELQDVRRNGDRAFVEQDFKTAIACYSQFVEERSLVYPSVYARRSLSYLFCDEPEKALLDGMHAQGVFPDWPTAFYLQSVALAKLDMNTDSADTLKEAALLEVKK
B4: the binding result in assay [3] and in assay [4] was “binds” in each case.
